No constants are given. Whether binding was seen depends on the method and setting.
Molecular target: T1, RCC1 (human, wild type, free protein) (human), P18754
T1 chain: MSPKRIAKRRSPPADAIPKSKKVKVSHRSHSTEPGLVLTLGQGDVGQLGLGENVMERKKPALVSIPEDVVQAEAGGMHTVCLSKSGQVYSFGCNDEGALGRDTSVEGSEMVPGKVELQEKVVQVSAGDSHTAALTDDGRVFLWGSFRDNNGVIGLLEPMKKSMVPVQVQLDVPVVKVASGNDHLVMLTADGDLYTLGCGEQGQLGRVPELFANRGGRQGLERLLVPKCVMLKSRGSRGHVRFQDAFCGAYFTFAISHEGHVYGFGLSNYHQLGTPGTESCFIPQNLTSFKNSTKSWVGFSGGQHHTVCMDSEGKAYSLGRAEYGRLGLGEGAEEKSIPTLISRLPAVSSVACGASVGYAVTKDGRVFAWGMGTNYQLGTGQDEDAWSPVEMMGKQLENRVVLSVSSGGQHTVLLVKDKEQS
Assay: SAXS; human RCC1 alone in GF buffer, 2.5–5.0 mg ml^-1; both purified
Conditions: remark: other sources report otherwise

B1: RCC1 (human, wild type, free protein), P18754 1-421 (protein)
chain: MSPKRIAKRRSPPADAIPKSKKVKVSHRSHSTEPGLVLTLGQGDVGQLGLGENVMERKKPALVSIPEDVVQAEAGGMHTVCLSKSGQVYSFGCNDEGALGRDTSVEGSEMVPGKVELQEKVVQVSAGDSHTAALTDDGRVFLWGSFRDNNGVIGLLEPMKKSMVPVQVQLDVPVVKVASGNDHLVMLTADGDLYTLGCGEQGQLGRVPELFANRGGRQGLERLLVPKCVMLKSRGSRGHVRFQDAFCGAYFTFAISHEGHVYGFGLSNYHQLGTPGTESCFIPQNLTSFKNSTKSWVGFSGGQHHTVCMDSEGKAYSLGRAEYGRLGLGEGAEEKSIPTLISRLPAVSSVACGASVGYAVTKDGRVFAWGMGTNYQLGTGQDEDAWSPVEMMGKQLENRVVLSVSSGGQHTVLLVKDKEQS
Q: For B1, which binding is on record?
A: The binding was “no binding (tested: 2.5 and 5.0 mg ml^−1)”.

Reference: publication PMC5645467
